From the supplement of paper PMC10338343
± gives the standard deviation. The list shows a part of the results, in another mix than the full data. Many of these values have a large error.

Tested on: EfPiwi piRISC loaded with piRNA #1 (26 nt)
Experiment: pre-steady-state target cleavage rate (min^-1); guide: piRNA #1 5'p-UGAGGUAGUAGGUUGUAUAGUAUCCA; MIWI and MILI are mouse PIWI proteins and EfPiwi is from a freshwater sponge; tags in brackets are library labels; higher = faster piRNA-guided slicing of the target
Conditions: auxiliary factor: 500 nM Ephydatia muelleri Gtsf1
How it was run: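 Cleave-'n-Seq: a transcribed, DNA-blocked target RNA library (0.1 nM) was mixed with 1 nM active affinity-purified piRISC carrying one synthetic guide, with or without 500 nM GTSF1 partner protein, in HEPES–potassium acetate buffer at 33 °C for 0–8 or 0–960 min. Uncleaved targets were sequenced and normalised to depth and to weakly complementary targets. Three trials were pooled, and k3 was capped at 0.0001 min^-1. The pre-steady-state cleavage rate came from a burst-and-steady-state fit.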

Sequence | pre-steady-state target cleavage rate
GGAGACCUAACUAUACAACCUACUAUCUCA | 0.0057 ± 0.003
GGAGACCUUACUAUACAAGCUACUUCCUCA | 0.00275 ± 0.003
GGAGACCUAUGUAUACAACCUACUAGCUCA | 0.00193 ± 0.0043
GGAGACCAUACUAAUGAACCUACUACCUCA | 0.00242 ± 0.0043
GGAGUGGAUACUUUACAACCUUCUACCUCA | 0.00301 ± 0.0026
GGAGACCUUACUAUACAACAUACUACCUCA | 0.00974 ± 0.0063
GGAGAGGAUACUAUACAACCUACUACCCA | 0.0052 ± 0.0025
GGAGACCUAUGUGAUACAACCUACUACCUCA | 0.0129 ± 0.0064
GGAGUGGAUACUAUACAACCAACUACCUGA | 0.00303 ± 0.0013
GGAGACCUAACUAUACAACCUACUACCUGA | 0.00393 ± 0.002
GGAGACCUAUCUUUACAACGUACUACCUCA | 0.0015 ± 0.0052
GGAGAGGAUACUAUACAACCUACUACCAUCA | 0.00705 ± 0.0029
GGAGUGGAUACUAUACAACCUACUACCGUCA | 0.00748 ± 0.0027
GGAGUGGAUUCUAUACAACCUACUUCCUCA | 0.00228 ± 0.0036
GGAGAGGAAUCUAUACAACCUACUACCUCA | 0.00943 ± 0.0056
GGAGUGCAUACUUUACAACCUACUACCUCA | 0.00271 ± 0.0039
GGAGACCUAUCUAUACAACCAUGAUGGAGA [g11:g20:cont:t1A] | 0.00169 ± 0.0052
GGAGAGGAUACUAUACAACCUACUUCCUCA | 0.00514 ± 0.0026
GGAGACCUUACUAUAGUACCUACUACCUCA | 0.00174 ± 0.0049
GGAGACGAUACUAUACAACCUACUAUCCUCA | 0.0049 ± 0.0014
GGAGACCAUACUAAACAACCUACUACGUCA | 0.00226 ± 0.0033
GGAGACCUAUCUAUACAUCGUACUACCUCA | 0.00119 ± 0.0067

Sequence | pre-steady-state target cleavage rate
GGAGACGAUAGAAUACAACCUACUACCUCA | 0.00812 ± 0.0043
GGAGACGAUACUAUACAACCUACUACCUA | 0.104 ± 0.038
GGAGACCUAACUAUACAACGAUGAUGGAGA [g12:g21:cont:t1A] | 0.000162 ± 0.034
GGAGACCUUACUAUACUAACCUACUACCUCA | 0.00212 ± 0.0041
GGAGUGGUUACUAUACAAGCUACUACCUCA | 0.00582 ± 0.0018
GGAGACGAUACUAUAGUUCCUACUACCUCA | 0.00239 ± 0.0033
GGAGACCUAUGUAUACAAGCUACUACGUCA | 0.00162 ± 0.0056
GGAGACCUUACUAUACAACCAACUUCCUCA | 0.00218 ± 0.0043
GGAGAGGAUACAAUACAACCUUCUACCUCA | 0.00307 ± 0.0023
GGAGUGGAUACUAUUCAACCUACUUCCUCA | 0.00229 ± 0.0023
GGAGAGGAUACUUAUACAACCUACUACCUCA | 0.112 ± 0.045
GGAGACGUACUAUACAACCUACUACCUCA | 0.0561 ± 0.022
GGAGACCUAACUAUACAACCUACUGACCUCA | 0.00224 ± 0.0054
GGAGAGGAUACUAAACAACCUACUUCCUCA | 0.00239 ± 0.0016
GGAGACCUAUCUAUACAACCUACUACGCUCA | 0.00173 ± 0.0053
GGAGACCUAUCUAUACAACCUAAUACCUCA | 0.00285 ± 0.0041
GGAGACCUAUGUAUACAACCUACUACGACA | 0.000807 ± 0.011
GGAGAGGAUUGAAUACAACCUACUACCUCA | 0.00721 ± 0.0044
GGAGACCUUACUAUACAACCUACUACGACA | 0.00191 ± 0.0023
GGAGAGGAUACUAUACAACCUACUGCCUCA | 0.00919 ± 0.0038
GGAGACCUAUGUAUACAACCUACUACACUCA | 0.000224 ± 0.017
GGAGACCUUAGUAUACAACGUACUACCUCA | 0.000604 ± 0.0044

Sequence | pre-steady-state target cleavage rate
GGAGACCUAUGUAUACAACCUAAUACCUCA | 0.000733 ± 0.0063
GGAGACCAUACUAAACAACCUACUACCUCA | 0.0127 ± 0.0048
GGAGACGAUACUAUAGAACGUACUACCUCA | 0.00177 ± 0.0015
GGAGACCUAACUAUACAACGUACUACCUGA | 0.00227 ± 0.0037
GGAGACCUAACUAUACAACCUACAACCUCA | 0.00286 ± 0.0033
GGAGACCUAUCUAUACAACCUACUACCAUCA | 0.00291 ± 0.0045
GGAGAGGAUACUAUACAACCUACUAGCACA | 0.00322 ± 0.0016
GGAGACCUAACUUUACAUCCUACUACCUCA | 0.00237 ± 0.0048
GGAGACCUAUGAAUACAAGCAACUACCUCA | 0.000173 ± 0.022
GGAGACCUAACUAUACAACCUACUACCUCC [g2:g21:cont:t1C] | 0.00701 ± 0.0033
GGAGACCUAUCUAUACAACCUACUACCACA | 0.00226 ± 0.0029
GGAGACCUAACUAUACAACCUACUACGACA | 0.00325 ± 0.0029
GGAGACCUUACAUAUACAACCUACUACCUCA | 0.00546 ± 0.0041
GGAGACCUUACUAUUCAACCAACUACCUCA | 0.00109 ± 0.0052
GGAGUGGAUACUAUACAACGAACUACCUCA | 0.00257 ± 0.0018
GGAGAGGAUACUUUACAACCUUCUACCUCA | 0.0032 ± 0.0028
GGAGUUGGAUACUAUACAACCUACUACCUCA | 0.197 ± 0.056
GGAGUGGAUAGAUUACAACCUACUACCUCA | 0.00432 ± 0.0045
GGAGUGGAUACUAUACAACCUACAUCCUCA | 0.00282 ± 0.0012
GGAGAGGAUAGUAUACAACCUACUACCUGA | 0.00298 ± 0.0022
